# Results reported in paper PMC12448893.
# By UniProt entry, the sequences of proteins in these tests, tags left out. Where a name states a change or a piece, a line headed by the entry shows the natural chain unless it says otherwise.
# UniProt Q13547: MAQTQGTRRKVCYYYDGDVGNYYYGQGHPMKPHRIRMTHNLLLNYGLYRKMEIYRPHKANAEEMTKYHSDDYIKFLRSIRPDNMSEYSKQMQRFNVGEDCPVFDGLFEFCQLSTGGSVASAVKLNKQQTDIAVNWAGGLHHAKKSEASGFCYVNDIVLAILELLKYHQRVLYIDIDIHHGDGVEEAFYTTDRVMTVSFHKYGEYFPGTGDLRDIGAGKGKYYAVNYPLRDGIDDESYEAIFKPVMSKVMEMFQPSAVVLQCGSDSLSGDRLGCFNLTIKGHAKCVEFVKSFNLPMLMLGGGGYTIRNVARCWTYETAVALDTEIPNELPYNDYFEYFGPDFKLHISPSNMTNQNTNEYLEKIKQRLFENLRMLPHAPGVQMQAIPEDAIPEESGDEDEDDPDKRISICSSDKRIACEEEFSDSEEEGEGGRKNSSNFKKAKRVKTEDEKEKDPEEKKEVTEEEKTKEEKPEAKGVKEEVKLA
# UniProt Q8K4B0: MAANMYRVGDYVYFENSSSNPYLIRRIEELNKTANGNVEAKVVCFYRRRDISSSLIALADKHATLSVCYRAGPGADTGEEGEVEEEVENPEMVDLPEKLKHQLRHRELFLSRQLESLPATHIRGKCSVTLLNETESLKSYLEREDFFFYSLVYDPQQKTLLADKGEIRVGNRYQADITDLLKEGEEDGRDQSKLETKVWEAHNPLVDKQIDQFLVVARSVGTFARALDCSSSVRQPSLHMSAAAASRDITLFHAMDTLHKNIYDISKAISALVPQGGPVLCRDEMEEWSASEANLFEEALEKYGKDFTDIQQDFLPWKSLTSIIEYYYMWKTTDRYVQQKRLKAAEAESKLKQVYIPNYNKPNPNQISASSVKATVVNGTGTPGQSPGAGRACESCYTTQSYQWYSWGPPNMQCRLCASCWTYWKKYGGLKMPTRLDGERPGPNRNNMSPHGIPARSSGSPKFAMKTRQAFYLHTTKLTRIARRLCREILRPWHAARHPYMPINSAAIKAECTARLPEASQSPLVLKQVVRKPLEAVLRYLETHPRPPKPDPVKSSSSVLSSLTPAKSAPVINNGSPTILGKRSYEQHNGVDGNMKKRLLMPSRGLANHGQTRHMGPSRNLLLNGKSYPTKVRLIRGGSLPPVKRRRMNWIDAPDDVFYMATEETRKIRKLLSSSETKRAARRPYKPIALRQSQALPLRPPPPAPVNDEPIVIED
# UniProt Q8VHR5: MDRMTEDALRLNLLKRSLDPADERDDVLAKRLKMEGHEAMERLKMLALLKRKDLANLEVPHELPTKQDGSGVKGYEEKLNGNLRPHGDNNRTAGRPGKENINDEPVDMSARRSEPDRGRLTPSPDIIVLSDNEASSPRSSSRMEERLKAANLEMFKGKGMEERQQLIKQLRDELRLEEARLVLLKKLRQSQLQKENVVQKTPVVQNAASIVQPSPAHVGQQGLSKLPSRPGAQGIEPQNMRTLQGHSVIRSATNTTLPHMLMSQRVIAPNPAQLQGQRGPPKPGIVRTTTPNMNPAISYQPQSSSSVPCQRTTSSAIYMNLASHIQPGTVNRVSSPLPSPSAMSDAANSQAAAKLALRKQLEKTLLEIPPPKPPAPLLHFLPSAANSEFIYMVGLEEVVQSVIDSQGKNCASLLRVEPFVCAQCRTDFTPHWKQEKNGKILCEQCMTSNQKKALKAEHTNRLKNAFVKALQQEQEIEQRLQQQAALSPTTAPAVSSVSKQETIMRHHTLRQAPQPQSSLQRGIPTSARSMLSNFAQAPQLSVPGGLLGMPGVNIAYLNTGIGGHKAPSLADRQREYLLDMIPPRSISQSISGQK
# UniProt P11103: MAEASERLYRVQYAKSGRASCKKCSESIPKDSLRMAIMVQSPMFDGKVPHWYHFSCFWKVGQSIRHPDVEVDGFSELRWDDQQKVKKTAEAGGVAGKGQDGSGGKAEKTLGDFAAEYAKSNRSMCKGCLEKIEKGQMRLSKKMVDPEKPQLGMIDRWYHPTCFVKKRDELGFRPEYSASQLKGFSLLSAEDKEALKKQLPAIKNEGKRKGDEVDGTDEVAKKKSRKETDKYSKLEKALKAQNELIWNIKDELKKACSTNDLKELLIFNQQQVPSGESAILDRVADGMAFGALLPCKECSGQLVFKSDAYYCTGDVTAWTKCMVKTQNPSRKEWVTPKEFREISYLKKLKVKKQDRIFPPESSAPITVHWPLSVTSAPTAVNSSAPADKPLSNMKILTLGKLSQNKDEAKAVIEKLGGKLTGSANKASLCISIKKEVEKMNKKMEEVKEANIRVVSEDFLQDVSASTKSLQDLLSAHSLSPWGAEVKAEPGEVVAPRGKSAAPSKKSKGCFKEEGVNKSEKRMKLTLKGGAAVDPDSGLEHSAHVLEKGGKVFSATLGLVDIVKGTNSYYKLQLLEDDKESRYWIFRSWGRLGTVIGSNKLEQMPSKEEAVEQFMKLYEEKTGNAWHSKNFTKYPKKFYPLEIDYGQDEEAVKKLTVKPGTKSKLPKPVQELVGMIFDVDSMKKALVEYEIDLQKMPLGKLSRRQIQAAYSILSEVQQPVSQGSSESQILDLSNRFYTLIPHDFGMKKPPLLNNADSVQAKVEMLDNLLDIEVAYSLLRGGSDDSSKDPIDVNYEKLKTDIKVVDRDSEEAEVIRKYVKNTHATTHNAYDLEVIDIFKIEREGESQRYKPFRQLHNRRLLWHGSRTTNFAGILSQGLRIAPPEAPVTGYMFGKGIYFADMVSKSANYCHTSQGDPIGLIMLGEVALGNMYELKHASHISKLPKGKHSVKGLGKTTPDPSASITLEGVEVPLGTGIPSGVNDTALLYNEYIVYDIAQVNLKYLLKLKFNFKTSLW
# UniProt P56546: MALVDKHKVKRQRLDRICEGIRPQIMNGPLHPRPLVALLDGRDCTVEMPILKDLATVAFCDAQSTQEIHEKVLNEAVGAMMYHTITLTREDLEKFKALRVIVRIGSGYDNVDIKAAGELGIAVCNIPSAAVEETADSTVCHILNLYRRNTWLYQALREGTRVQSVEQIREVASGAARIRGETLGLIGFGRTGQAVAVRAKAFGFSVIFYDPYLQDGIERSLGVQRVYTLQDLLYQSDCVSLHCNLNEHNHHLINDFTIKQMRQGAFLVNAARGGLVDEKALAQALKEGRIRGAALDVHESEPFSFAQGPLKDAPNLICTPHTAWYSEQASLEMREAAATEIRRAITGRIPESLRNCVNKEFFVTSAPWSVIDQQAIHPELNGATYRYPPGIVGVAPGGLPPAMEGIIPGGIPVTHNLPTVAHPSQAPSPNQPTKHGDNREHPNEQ
# UniProt Q9Z148: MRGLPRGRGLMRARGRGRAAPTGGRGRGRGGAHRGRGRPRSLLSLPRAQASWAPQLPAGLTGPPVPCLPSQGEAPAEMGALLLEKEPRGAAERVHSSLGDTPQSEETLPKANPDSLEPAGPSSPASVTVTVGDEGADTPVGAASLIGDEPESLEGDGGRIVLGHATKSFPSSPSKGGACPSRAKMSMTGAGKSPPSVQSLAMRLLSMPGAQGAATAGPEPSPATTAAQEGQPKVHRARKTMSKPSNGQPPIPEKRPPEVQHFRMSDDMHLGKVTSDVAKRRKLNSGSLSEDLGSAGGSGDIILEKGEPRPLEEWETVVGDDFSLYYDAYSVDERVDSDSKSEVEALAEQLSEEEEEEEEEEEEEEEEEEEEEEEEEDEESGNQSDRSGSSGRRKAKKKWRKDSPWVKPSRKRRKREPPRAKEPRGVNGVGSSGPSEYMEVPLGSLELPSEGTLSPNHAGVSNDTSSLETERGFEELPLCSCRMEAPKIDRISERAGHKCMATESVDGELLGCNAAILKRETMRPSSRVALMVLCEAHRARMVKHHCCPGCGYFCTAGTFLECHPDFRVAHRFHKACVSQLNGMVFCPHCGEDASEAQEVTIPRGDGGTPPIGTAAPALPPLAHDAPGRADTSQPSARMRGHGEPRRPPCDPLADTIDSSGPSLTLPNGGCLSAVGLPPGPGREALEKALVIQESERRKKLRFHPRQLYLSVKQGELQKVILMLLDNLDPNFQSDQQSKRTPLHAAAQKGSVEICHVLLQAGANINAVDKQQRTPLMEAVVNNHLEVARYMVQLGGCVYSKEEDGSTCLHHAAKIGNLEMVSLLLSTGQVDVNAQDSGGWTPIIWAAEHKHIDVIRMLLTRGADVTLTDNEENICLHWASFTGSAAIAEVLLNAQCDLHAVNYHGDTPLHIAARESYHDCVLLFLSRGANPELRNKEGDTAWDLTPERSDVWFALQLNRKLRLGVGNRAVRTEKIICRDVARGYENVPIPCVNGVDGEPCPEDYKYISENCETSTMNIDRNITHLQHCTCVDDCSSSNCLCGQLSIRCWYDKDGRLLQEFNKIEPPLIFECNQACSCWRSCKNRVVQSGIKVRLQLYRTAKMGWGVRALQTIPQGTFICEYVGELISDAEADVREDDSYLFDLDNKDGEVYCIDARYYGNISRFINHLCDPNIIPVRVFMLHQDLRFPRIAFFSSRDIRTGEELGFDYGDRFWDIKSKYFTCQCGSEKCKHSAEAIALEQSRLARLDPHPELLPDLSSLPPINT
# UniProt Q8CHY6: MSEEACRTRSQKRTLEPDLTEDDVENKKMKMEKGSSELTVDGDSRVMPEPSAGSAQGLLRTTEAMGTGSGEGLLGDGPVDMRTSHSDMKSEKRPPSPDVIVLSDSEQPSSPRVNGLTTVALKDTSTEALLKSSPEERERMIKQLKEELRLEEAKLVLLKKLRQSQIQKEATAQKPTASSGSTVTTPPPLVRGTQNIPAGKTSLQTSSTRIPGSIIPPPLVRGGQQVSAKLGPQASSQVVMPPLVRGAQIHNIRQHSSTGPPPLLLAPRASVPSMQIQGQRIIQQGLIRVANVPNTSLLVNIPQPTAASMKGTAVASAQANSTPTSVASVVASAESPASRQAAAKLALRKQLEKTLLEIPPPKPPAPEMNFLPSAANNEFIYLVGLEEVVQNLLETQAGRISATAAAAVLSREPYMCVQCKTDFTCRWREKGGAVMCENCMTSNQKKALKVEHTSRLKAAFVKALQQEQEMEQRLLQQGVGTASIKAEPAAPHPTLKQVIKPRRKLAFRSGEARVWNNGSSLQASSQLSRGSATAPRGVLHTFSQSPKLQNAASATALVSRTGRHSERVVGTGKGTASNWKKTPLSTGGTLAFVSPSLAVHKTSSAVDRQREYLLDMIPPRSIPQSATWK
# UniProt Q9R190: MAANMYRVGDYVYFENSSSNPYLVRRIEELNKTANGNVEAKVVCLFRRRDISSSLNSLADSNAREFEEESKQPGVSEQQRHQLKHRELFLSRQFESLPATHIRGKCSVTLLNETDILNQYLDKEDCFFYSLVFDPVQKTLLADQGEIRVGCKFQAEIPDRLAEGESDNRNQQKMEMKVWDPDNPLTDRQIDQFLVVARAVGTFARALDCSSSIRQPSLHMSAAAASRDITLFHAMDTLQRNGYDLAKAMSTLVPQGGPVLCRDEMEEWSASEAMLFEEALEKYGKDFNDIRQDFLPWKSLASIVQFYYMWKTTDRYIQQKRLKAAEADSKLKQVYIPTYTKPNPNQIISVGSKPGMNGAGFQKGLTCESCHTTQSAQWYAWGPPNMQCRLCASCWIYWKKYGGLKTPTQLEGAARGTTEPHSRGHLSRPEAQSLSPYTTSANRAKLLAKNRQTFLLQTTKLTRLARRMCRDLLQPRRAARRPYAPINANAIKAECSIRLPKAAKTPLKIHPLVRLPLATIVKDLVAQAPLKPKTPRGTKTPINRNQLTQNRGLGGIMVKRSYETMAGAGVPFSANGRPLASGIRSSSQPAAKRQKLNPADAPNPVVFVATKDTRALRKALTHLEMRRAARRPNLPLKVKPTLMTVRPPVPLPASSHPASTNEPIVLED
# UniProt Q924K8: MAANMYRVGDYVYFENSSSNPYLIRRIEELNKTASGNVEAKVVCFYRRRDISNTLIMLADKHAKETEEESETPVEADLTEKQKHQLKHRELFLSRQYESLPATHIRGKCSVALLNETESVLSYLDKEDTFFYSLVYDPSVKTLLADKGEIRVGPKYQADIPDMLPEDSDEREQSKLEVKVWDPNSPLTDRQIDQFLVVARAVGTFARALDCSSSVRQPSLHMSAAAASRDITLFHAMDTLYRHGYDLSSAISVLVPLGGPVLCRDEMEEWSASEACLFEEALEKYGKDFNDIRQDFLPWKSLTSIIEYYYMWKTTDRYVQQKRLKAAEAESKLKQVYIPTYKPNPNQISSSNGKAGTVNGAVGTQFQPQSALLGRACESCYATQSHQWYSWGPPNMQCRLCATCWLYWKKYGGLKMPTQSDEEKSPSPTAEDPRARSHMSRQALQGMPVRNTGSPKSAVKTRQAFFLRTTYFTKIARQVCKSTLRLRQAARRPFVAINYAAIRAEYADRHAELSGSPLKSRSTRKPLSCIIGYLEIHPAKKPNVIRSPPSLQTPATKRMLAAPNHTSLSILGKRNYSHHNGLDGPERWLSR
# Target: HDAC1-Flag (wild type), stably expressed in Hdac1/2 double knockout mouse ESCs (UniProt Q13547)
# Assay: affinity purification with mass spectrometry; Flag IP (anti-Flag on Protein G Dynabeads) of HDAC1-Flag WT, Y48E or E63R from extracts of Hdac1/2 DKO mouse ESCs 5 days after OHT; coIP buffer 250 mM NaCl, 20 mM Tris-HCl pH 7.5, 0.5% IGEPAL, 1 mM EDTA; 4°C overnight; LC-MS/MS; control DKO cells lacking a Flag epitope
row,binding,Molecule
1,binds,"MTA1 (endogenous, mouse ESCs) (from UniProt Q8K4B0 1-715)"
2,binds,"GATA2B (endogenous, mouse ESCs) (from UniProt Q8VHR5 1-594)"
3,binds,"PARP1 (endogenous, mouse ESCs) (from UniProt P11103 1-1013)"
4,binds,"CTBP2 (endogenous, mouse ESCs) (from UniProt P56546 1-445)"
5,binds,"EHMT2 (KMT1C/G9A) (endogenous, mouse ESCs) (from UniProt Q9Z148 1-1263)"
6,binds,"TET1 (endogenous, mouse ESCs) (from UniProt Q3URK3 1-2039)"
7,binds,"GATA2A (endogenous, mouse ESCs) (from UniProt Q8CHY6 1-629)"
8,binds,"MTA2 (endogenous, mouse ESCs) (from UniProt Q9R190 1-668)"
9,binds,"MTA3 (endogenous, mouse ESCs) (from UniProt Q924K8 1-591)"
10,binds,"MIDEAS (endogenous, mouse ESCs) (protein, UniProt E9Q2I4 1-1089) MNLQAQSKAQSKRKRCPFGDQEPAAKEQPPPLQSPPQSLRAKEEQYGAHEGPTGVASTTQPVELSPPNNLALLNSVVYGSERTTAAMLSQQAQVSSVKWPSSVMAPGRGLERGGGGGISDSGWQQQPGQPPPHSTWNHLPLYGGPKGSPHPGVGVPPYYNHPEALKGNKPGGPQLDHYGNAVQPMVPQKVQLEVGRPQAPLNSFHAAKKPPNQTLPLQPFQLAFGHQVNRQVFRQGPQPSNPTASFPPQKQQQQQQPAALPQMQLFENYYPMHQLPSQQHQDFGLAPGGPLGQTHLAHRSMAPYPFSHNPDMNPELRKALLQDPASQPVLPQPQMAFPRRSRRLSKEGILPSNSLDGAGTQPGQEPASNLFLHHWSLPQPPPGTLGQPHSEALGFPLELRESQMLADGDRLAPNGREREPPAMGNEEVMRAGGLGDCGQMIRSGVIQSTKRRRRVSQEANLLTLAQKAVELASMQDANGSEEKRKSVLATTSRCGVEFSEPALAAKRAREESGMVPLIIPVSVPVRTVGPTEVAQVGGADEDGTGLEQYPTEHKPSVIVTRRRSTRVPGTDAAAQAEDLNVKLEGEPSMRKPKQRPRPEPLIIPTKAGTFIAPPVYSNITPYQSHLRSPVRLADHPSERSFEPPPYTPPPILSPVREGSGLYFNAIISTSNIPAPPPITPKSAHRTLLRSNSSEVTPPVLSVMGEATPVSIEPRINVGTRFQAEIPMMRDRALAAFDPHKADLVWQPWEHLESSWEKQRQVDDLLTAACSSIFPGAGTNQELALHYLHESRGDILEALNKLLLRKPLRPHNHPLATYHYTGSDQWKTAERKLFNKGIAIYKKDFFLVQKLIQTKTVAQCVEFYYTYKKQVKIGRNGTLTFGDLDIGDEKSGQEEVEVDVKTSQKFPRVPPPRRESPSEERLEPKREVTEPRKEGEEEVPDTQEKGEQEEGRERCRRAAAVKATQTLQANEAANDVLILRSHEPNAPGSAGIQTSEKPREGPGKSRRALPFTEKKKKAEAFNKTQNQENTFPCKKCGRVFYKVKSRSAHMKSHAEQEKKAAALRLKEKEAAAAAAHQQALREESGEGEKG"
11,binds,"ZNF219 (endogenous, mouse ESCs) (protein, UniProt Q6IQX8 1-726) MEGSRPRILVGHLEPSPPAFDGELDLQRYSNGPGVSGTPGPGSPGMGAVGWSETRAGERRFPCPVCGKRFRFNSILALHLRAHPGAQAFQCPHCGHRAAQRALLRSHLRTHQPERPRSPAARLLLELEERALLREARLGRARSSGGMQSSPAAEGLARPQVPSSSAFRCPFCKGKFRTSAERERHLHILHRPWKCSLCSFGSSQEEELLHHSLTAHGASERPLAATSTPEPPPPPQQEPRSALEPEPEPEPRPEPDREANPAPTPAPPEEPPAPPEFRCQVCGQSFTQSWFLKGHMRKHKASFDHACPVCGRCFKEPWFLKNHMKVHTSKLGPLRAPGPGSAPARAPQPPDLSLLAYEPLGPALLLAPAPAPAERREPPSLLGYLSVRAGEVRPNGEGADPGGGRSYGGFRPLPSALPNRARRHRTEEPEEEEEVVEAEEESWARGRSLGSLTSLHPNPGEGSGQPAPAAGTQARSTATQEENGLLVGGTRSEAGRGATGKDCPFCGKSFRSAHHLKVHLRVHTGERPYKCPHCDYAGTQSGSLKYHLQRHHREQRSSAGPGPPPEPPPPSQRGSLQPQSGAKPTQASATWVEGTASTRPPSSSTGPGSRRKPASPGRTLRNGRGGEAEPLDLSLRAGPGGEAGAGGALHRCLFCPFATGAPELMALHLQVHHSRRARGRRQPRADTSPTYVRAPSGETPPSPPLEEEGSPGLSRSGEAGLGGQER"
12,binds,"SAP30 (endogenous, mouse ESCs) (protein, UniProt O88574 1-220) MNGFTPEEMSRGGDAAAAVAAVVAAAAAAASAGNGNAAGGGAEVPGAGAVSASGPPGAAGPGPGQLCCLREDGERCGRAAGNASFSKRIQKSISQKKVKIELDKSARHLYICDYHKNLIQSVRNRRKRKGSDDDGGDSPVQDIDTPEVDLYQLQVNTLRRYKRHFKLPTRPGLNKAQLVEIVGCHFKSIPVNEKDTLTCFIYSVRNDKNKSDLKADSGVH"
13,binds,"ZMYM2 (endogenous, mouse ESCs) (protein, UniProt Q9CU65 1-1376) MDTSSVGTLELTDQTPVLLGSTAMATSLTNVGNSFSGPPNPLVSRSSKFQNSSVEDDDDVVFIEPVQPPPSSAPLVADQRPITFTSSKNEELQGNDPKILPSSKELAPQKGSVSETIVIDDEEDMETNQGQEKSSSNFIERRPSETKNRTNDVDFSSSTFSRSKVNAGVSNSGITTEPDSEIQIANVTTLETGVSSVSDGQLESTDGRDMNLMITHVTSLHNTSLGDGSNGLQSSNFGVNIQTYTPSLTSQTKAGVGPFNPGRMNVAGDVFQNGESAPHHNPDSWISQSASFPRNQKQQGVDSLSPVASLPKQIFQPSNQQPTKPVKVTCANCKKPLQKGQTAYQRKGSAHLFCSTTCLSSFSHKPAPKKLCVMCKKDITTMKGTIVAQVDSSESFQEFCSTSCLSLYEDKQSPAKGALNKSRCTICGKLTEIRHEVSFKNMTHKLCSDHCFNRYRMANGLIMNCCEQCGEYLPSKGAGNNVLVVDGQQKRFCCQSCVTEYKQVGSHPSFLKEVRDHMQDSFLMQPEKYGKLTTCTGCRTQCRFFDMTQCIGPNGYMEPYCSTACMNSHKTKYAKSQSLGIICHFCKRNSLPQYQATMPDGKLYNFCNSSCVAKFQALSMQSSPNGQFVAPSDIQLKCNYCKNSFCSKPEILEWENKVHQFCSKTCSDDYKKLHCIVTYCEYCQEEKTLHETVNFSGVKRPFCSEGCKLLYKQDFARRLGLRCVTCNYCSQLCKKGATKELDGVVRDFCSEDCCKKFQEWYYKAARCDCCKSQGTLKERVQWRGEMKHFCDQHCLLRFYCQQNEPNMTTQKGPENLHYDQGCQTSRTKMTGSAPPPSPTPNKEMKNKAILCKPLTMTKATYCKPHMQTKSCQTDENWKTEYVPVPIPVPVYVPVPMHMYSQNIPVPTTVPVPVPVPVFLPAPLDSSEKIPATVEDLKSKVSSDPLDSELLTMTDMMTEEEGKAEASNINSVIIETDIIGSDLTKNSDPDIQSNMPDVPYEPDLDIEIDFPRAAEELDMENEFLLPPVFGEEYEEQPRPRSKKKGTKRKAVSGYQSHDDSSDNSECSFPFKYTYGVNAWKHWVKTRQLDEDLLVLDELKSSKSVKLKEDLLSHTTAELNYGLAHFVNEIRRPNGENYAPDSIYYLCLGIQEYLCGSNRKDNIFIDPGYQMFEQELNKILRSWQPSILPDGSIFSRVEEDYLWRIKQLGSHSPVALLNTLFYFNTKYFGLKTVEQHLRLSFGTVFRHWKKNPLTMENKACLRYQVSSLCGTDNEDKIATGKRKHEDDEPVFEQVENTANPSRCPVKMFECYLSKSPQNLNQRMDVFYLQPECSSSTDSPVWYTSTSLDRNTLENMLVRVLLVKDIYDKDNYELDEDTD"
14,binds,"SUDS3 (endogenous, mouse ESCs) (protein, UniProt Q8BR65 1-328) MSAAGLLAPAPAPAAAPAAPEYYPEDEEELESAEDDERSCRGRESDEDTEDASETDLAKHDEEDYVEMKEQMYQDKLASLKRQLQQLQEGTLQEYQKRMKKLDQQYRERIRNAELFLQLETEQVERNYIKEKKAAVKEFEDKKVELKENLIAELEEKKKMIENEKLTMELTGDSMEVKPIMTRKLRRRPNDPVPIPDKRRKPAPAQLNYLLTDEQIMEDLRTLNKLKSPKRPASPSSPEHLPATPAESPAQRFEARIEDGKLYYDKRWYHKSQAIYLESKDNQKLSCVISSVGANEIWVRKTSDSTKMRIYVGQLQRGLFVIRRRSAA"
15,binds,"TRERF1 (endogenous, mouse ESCs) (protein, UniProt Q8BXJ2 1-1205) MGDQQLYKTNHVGHGGENLFYQQPPLGVHSGLGHSYGNTISGAGMDAPQASPISPHFPQDTRDGLGLPIGSKNLGQMDTSRQGGWGSHAGPGNHVQLRSNLANSNMMWGTPTQVEPADGYQYTYSQASEIRTQKLTSGVLHKLDSFTQVFANQNLRIQVNNMAQVLHTQSAVMDGASDSALRQLLSQKPVEPSASAIASRYQQVPQQPHPGFTGGLPKPALPVGQHAPQGHLYYDYQQPLAQMSMQGGQPLQAPQVLSGHMQQLQQHQYYPQPPPQQQQAGLQRISVQEMQQQQQPQQIRPSPPQQQQQLQLQQRQSSLQIPQYYQPQPMMQHLQEQQQPSMHLQPPSYHRDPHQYTPEQAHAVQLIQLGSMPQYYYQEPQQAYSHPLYPQSHLSQHQQREDGQLKTYSSDRQTPAMLSSHGDMGTSDTGVADPASSEMTRVTSTLPHQPLLSPSGIHLNNMGSQHQQPPSPSAMWPQMHLPDGRAQSGSPESSSGQTKGVFGEQFDAKNKLTCSICLKEFKSLPALNGHMRSHGGMRASPSLKQEEGEKAPPPQPQPQPQPQQPLPPPPPPPPPPQLPPEAERLTPMVMPVSVPVKLIPPKPSSQGFTNSVAATPAARDKPASSMSDDEMPVLEIPRKHPPIAAKVEEPLKNLPEKKKFRHRPEPLFIPPPPSSYTPNPTSYSGATLYQSQLRSPRILGDHLLLDPAHELPPYTPPPMLSPVRQGSGLFSNVLISGHGPGVHPQLPLTPLTPTPRVLLCRSSSIDGSNVTVTPGPGEQTVDVEPRINIGLRFQAEIPELQDVSALAQDTHRATLVWKPWPELENQALQQQVENLLNLCCSSALPGGGTNSEFALHSLFEAKGDVMATLEMLLLRKPVRLKCHPLANYHYAGSDKWTSLERKLFNKALATYSKDFIFVQKMVKSKTVAQCVEYYYTWKKIMRLGRKHRTRLAEIIDDCMTSEEEEEAEEEEEDPEEDRKSIKEEESEVAKSPEPPPAPALAPTEGPPMQAVGQQPSGNFICEMPNCGAVFSSRQALNGHARIHGGTNQVAKTRGAIPSGKQKPGGTQSGYCSVKSSPSHSTTSGETDPTTIFPCKECGKVFFKIKSRNAHMKTHRQQEEQQRQKAQKAAFAAEMAATIERTTGPVGAPELLPLDQLSLMKPVKDVDILDDDVVQQLGVMDEAEVVGTDLLLDDQDSVLLQGDTEL"

# No constants are given. Whether binding was seen depends on the method and setting. Binding seen in cells or lysates may run through a third protein. A yes stands for co-enrichment or nearness to the bait. Other partners may have been found.
